{"source": "patent US20050054012", "about": "“Methods of detecting and treating facioscapulohumeral muscular dystrophy” (published 2005)", "key": {"[1]": {"tested_on": "D4Z4 recognition complex (YY1, HMGB2, nucleolin) (Homo sapiens)", "test": "footprint", "conditions": "DNase I; HeLa nuclear extract, probe D4Z4-243; protein in an extract; protein details: HeLa nuclear extract or affinity-purified fraction; label: 32P end"}, "[2]": {"tested_on": "D4Z4 recognition complex (YY1, HMGB2, nucleolin) (Homo sapiens)", "test": "EMSA", "conditions": "HeLa nuclear extract, protein in an extract, protein details: HeLa nuclear extract or affinity-purified fraction, label: 32P end"}}, "note": "Where cells or extracts were used, other partners may take part. For part of these data: Negatives hold for the conditions tested."}
{"sequence": "CCATTCATGAAGGGGTGGAGCCTGCCT (double strand) [DBE 27 bp within D4Z4-243]", "values": [{"measurement": "binding result", "setting": "[1]", "result": "binds"}]}
{"sequence": "CTCACCGCCATTCATGAAGGGGTGGAGCCTGCCTG (double strand) [DBE WT probe]", "values": [{"measurement": "binding result", "setting": "[2]; anti-nucleolin and anti-HMGB2 supershift, anti-YY1 disrupts the shift", "result": "binds"}]}
{"sequence": "CTCACCGCCGCCCATGAAGGGGTGGAGCCTGCCTG (double strand) [DBE MUT probe]", "values": [{"measurement": "binding result", "setting": "[2]; variant of DBE WT probe", "result": "no binding"}]}
